Reference: the supplement of paper PMC10849652
This is one part of the list.

Chains of the proteins cited; added tags and fusions are not shown. Lines headed by an entry give the natural chain unless they say otherwise; changes in a name come on top.
UniProt Q86W50: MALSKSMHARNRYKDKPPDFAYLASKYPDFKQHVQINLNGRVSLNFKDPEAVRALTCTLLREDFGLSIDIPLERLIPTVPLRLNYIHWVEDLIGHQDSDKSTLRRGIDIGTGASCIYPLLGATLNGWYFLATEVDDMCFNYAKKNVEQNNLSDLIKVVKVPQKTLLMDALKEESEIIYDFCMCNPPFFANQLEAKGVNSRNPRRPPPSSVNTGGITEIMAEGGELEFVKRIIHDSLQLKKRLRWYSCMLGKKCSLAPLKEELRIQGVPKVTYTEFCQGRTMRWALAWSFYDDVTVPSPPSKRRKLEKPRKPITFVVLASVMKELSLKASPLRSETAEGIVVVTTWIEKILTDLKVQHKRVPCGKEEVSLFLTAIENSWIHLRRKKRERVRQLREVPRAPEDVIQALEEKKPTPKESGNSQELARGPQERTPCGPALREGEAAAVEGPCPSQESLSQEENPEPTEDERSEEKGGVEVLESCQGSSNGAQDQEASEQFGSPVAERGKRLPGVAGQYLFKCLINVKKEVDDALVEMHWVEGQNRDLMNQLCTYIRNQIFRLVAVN
UniProt Q14728: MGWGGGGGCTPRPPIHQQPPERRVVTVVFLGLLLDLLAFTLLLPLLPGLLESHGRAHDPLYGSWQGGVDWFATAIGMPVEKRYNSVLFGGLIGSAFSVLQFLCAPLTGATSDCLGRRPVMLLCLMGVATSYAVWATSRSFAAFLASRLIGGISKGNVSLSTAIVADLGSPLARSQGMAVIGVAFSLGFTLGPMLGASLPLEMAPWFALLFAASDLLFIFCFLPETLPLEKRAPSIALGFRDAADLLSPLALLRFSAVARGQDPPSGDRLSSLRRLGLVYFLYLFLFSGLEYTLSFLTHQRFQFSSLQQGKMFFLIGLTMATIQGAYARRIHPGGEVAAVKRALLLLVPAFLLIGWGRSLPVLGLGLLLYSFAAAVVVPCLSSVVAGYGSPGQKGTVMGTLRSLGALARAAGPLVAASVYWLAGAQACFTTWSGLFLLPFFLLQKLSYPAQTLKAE
UniProt P40925: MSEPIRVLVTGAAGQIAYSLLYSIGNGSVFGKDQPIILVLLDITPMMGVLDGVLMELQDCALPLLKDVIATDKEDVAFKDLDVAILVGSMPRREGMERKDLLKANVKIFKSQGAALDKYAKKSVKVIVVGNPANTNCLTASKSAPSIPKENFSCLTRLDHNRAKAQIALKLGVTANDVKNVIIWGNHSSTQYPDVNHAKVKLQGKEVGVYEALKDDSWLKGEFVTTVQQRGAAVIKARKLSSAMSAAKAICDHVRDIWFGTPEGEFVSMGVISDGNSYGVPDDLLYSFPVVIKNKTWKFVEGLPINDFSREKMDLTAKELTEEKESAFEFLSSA
UniProt Q96G25: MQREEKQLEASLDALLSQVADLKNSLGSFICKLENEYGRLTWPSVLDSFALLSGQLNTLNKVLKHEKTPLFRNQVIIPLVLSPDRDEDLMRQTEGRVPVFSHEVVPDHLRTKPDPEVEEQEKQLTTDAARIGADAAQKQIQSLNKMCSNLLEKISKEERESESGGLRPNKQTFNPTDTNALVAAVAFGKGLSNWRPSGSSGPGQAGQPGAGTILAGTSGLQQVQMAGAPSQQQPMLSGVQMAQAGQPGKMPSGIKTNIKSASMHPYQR
UniProt Q14696: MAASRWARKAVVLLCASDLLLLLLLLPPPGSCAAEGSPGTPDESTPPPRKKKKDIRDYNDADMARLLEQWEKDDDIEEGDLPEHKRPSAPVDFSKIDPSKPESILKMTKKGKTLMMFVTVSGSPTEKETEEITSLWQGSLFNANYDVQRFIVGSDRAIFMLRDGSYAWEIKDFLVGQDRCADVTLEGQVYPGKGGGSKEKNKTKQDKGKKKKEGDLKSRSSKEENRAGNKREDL
UniProt Q71F56: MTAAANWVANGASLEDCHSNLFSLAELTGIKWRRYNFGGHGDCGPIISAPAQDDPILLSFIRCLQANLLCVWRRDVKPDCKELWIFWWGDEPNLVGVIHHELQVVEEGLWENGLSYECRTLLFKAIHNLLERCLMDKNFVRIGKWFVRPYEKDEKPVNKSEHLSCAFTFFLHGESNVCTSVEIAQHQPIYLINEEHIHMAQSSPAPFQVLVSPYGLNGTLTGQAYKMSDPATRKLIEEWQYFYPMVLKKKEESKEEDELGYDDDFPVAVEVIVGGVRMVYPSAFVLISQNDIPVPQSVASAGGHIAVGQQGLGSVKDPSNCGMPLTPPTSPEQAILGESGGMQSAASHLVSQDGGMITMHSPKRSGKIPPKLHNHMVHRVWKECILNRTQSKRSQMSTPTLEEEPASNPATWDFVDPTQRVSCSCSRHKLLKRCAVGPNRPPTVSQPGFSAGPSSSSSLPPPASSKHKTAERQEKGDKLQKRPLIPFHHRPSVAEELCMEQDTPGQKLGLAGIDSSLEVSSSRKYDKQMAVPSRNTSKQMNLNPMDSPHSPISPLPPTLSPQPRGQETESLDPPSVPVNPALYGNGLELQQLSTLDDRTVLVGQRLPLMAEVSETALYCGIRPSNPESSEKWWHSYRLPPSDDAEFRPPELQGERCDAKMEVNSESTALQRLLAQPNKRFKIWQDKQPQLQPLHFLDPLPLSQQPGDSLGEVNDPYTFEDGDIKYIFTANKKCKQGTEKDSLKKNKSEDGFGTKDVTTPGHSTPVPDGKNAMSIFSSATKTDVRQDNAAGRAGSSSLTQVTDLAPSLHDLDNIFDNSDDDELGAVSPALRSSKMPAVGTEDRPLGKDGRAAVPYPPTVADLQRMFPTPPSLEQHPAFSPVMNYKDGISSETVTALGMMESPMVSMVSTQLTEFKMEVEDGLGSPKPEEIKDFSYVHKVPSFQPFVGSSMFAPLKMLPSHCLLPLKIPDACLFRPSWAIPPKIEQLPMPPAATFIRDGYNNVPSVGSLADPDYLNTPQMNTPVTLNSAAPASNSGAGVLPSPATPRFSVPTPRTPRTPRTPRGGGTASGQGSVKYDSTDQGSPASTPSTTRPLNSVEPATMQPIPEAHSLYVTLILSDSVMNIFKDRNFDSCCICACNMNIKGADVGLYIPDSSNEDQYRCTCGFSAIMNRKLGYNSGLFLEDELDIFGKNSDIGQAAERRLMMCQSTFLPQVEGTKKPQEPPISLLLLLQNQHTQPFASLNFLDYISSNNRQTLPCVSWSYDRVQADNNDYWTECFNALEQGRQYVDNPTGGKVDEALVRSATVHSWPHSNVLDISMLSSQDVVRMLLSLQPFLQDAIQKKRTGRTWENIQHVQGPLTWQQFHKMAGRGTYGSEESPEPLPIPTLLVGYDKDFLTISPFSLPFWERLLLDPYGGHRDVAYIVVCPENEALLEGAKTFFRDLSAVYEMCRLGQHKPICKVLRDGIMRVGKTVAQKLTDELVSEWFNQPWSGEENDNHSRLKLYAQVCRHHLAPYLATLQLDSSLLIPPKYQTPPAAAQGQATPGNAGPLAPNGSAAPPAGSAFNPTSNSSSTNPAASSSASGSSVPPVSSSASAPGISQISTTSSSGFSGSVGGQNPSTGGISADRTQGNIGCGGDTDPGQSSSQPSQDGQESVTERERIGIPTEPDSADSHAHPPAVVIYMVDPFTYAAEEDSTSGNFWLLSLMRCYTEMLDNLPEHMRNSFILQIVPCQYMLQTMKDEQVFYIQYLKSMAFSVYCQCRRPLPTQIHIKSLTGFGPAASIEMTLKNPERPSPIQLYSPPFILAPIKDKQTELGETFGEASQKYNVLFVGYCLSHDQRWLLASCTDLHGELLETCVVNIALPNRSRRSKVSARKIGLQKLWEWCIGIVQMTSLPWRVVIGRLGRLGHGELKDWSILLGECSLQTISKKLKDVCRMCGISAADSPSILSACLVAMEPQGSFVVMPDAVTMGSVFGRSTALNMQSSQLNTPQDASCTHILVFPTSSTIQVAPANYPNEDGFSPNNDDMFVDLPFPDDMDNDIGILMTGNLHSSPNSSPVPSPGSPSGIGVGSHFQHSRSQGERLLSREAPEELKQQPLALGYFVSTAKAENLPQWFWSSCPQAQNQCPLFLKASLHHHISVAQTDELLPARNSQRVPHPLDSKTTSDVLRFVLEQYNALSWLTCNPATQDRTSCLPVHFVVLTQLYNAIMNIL
UniProt C9JP00: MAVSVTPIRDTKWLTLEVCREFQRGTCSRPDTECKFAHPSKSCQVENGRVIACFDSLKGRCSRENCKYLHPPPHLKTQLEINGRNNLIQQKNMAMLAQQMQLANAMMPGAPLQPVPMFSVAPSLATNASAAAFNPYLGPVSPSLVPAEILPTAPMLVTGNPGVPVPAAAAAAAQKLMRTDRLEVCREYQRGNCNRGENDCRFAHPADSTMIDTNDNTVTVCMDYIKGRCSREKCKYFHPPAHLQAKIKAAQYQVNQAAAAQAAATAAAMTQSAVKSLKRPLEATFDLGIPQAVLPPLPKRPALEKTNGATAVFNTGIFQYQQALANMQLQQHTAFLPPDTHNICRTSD
UniProt Q9UHV7: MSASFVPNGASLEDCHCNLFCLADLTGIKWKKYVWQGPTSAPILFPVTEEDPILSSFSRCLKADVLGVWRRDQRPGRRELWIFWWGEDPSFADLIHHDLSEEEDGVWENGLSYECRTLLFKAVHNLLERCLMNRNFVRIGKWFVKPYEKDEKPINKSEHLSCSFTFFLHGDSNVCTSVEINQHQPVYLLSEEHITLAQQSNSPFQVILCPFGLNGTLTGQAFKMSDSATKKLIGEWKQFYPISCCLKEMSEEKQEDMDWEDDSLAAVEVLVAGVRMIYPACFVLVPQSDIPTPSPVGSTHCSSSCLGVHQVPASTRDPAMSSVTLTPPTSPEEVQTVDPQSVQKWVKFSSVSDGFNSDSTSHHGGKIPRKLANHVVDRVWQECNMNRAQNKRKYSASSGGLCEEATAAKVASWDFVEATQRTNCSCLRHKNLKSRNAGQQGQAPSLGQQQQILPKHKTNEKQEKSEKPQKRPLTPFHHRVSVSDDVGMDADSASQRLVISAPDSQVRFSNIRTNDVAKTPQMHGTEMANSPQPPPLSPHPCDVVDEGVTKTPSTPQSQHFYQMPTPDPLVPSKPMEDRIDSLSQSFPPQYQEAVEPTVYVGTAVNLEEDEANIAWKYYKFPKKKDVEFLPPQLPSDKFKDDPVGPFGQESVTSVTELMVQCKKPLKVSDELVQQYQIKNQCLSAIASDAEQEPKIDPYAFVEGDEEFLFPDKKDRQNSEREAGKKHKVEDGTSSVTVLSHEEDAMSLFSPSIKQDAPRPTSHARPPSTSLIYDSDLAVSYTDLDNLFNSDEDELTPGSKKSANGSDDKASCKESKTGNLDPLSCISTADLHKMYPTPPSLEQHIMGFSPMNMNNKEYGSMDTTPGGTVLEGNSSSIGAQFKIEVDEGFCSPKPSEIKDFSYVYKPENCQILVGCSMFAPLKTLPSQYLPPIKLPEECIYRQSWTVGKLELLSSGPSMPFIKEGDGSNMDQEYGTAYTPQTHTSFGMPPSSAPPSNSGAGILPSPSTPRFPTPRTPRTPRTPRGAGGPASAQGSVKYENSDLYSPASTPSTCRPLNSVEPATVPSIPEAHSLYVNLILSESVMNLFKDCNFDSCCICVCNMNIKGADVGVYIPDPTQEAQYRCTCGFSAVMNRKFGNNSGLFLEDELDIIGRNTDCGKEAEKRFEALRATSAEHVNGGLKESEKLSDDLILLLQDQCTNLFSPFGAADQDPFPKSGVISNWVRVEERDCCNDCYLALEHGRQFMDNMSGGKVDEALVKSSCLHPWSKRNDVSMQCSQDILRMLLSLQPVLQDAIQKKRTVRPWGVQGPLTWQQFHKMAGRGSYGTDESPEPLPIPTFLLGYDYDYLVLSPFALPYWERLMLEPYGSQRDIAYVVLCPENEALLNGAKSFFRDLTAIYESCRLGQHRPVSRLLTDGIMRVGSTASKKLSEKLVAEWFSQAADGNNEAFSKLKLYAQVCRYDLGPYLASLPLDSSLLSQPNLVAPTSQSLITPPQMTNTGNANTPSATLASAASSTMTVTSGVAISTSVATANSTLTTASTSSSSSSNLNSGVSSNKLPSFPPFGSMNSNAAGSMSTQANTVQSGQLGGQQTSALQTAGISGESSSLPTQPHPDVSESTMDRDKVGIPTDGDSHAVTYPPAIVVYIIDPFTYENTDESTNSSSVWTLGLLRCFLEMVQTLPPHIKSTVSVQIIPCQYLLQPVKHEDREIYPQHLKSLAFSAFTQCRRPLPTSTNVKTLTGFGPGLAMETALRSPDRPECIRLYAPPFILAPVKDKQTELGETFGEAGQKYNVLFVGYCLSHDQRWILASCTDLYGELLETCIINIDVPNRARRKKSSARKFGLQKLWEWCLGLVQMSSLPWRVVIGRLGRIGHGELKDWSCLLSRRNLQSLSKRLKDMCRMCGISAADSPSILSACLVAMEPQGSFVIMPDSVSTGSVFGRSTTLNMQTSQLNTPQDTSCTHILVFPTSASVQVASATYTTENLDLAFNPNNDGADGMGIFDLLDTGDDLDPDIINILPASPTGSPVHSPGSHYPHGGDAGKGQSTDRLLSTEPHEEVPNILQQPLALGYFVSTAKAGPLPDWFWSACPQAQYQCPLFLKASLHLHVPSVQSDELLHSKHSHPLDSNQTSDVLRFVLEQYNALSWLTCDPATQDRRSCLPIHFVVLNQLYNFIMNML

compound: C1=CC=C2C(=C1)C3=NNC4=CC=CC(=C43)C2=O; assay: log2 fold change, soluble protein after heating vs DMSO (PISA); higher = thermal stabilisation; K562 lysate, 10 uM; active = over 0.2 and 3.5 SD of the protein, either way, in both replicates (recomputed)
Summary of the method: (§1)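 Log-two fold change in thermal stability relative to solvent controls is reported from duplicates. For each sample, crude K562 extract from dounce-homogenised pellets in PBS pH 7.4 with 1 mM MgCl2, at 1 mg/mL protein, was treated with 10 μM compound for 30 min. Aliquots heated for 3 min across 48°C-58°C were pooled, brought to 0.5% NP-40 at 4°C and cleared at 21,000xg for 90 min. The supernatant was quantified by TMTpro 16plex LC-MS/MS with channel sums equalised.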

| Target | log2 fold change |
| --- | --- |
| METTL16 (UniProt Q86W50) | inactive: -0.008 |
| MEX3D isoform 3 (UniProt Q86XN8) | inactive: 0.003 |
| MED4 (UniProt Q9NPJ6) | inactive: -0.008 |
| MEF2C isoform 5 (UniProt Q06413) | inactive: 0.015 |
| MED22 isoform 2 (UniProt Q15528) | inactive: 0.005 |
| MFSD10 (UniProt Q14728) | inactive: 0.071 |
| MDH1 isoform 3 (UniProt P40925) | inactive: 0.005 |
| MCM4 (UniProt P33991) | inactive: 0.035 |
| METTL2A (UniProt Q96IZ6) | inactive: -0.026 |
| MED8 isoform 2 (UniProt Q96G25) | inactive: 0 |
| MCFD2 (UniProt Q8NI22) | inactive: -0.088 |
| MESD (UniProt Q14696) | inactive: 0.069 |
| METTL7A (UniProt Q9H8H3) | inactive: -0.016 |
| MED20 (UniProt Q9H944) | inactive: 0.036 |
| MEF2D (UniProt Q14814) | inactive: 0.032 |
| MCU (UniProt Q8NE86) | inactive: 0.084 |
| MAZ isoform 2 (UniProt P56270) | inactive: 0.209 |
| MBOAT2 (UniProt Q6ZWT7) | inactive: -0.076 |
| MDN1 (UniProt Q9NU22) | inactive: -0.058 |

| Target | log2 fold change |
| --- | --- |
| MFN2 (UniProt O95140) | inactive: 0.016 |
| MED14 (UniProt O60244) | inactive: -0.066 |
| MFGE8 (UniProt Q08431) | inactive: 0.009 |
| ME1 (UniProt P48163) | inactive: 0.002 |
| MFN1 (UniProt Q8IWA4) | inactive: -0.011 |
| METAP1 (UniProt P53582) | inactive: 0.012 |
| MED13L (UniProt Q71F56) | inactive: -0.035 |
| MCM5 (UniProt P33992) | inactive: 0.047 |
| MED15 (UniProt Q96RN5) | inactive: 0 |
| MED7 (UniProt O43513) | inactive: -0.109 |
| MED12 isoform 2 (UniProt Q93074) | inactive: -0.025 |
| METAP2 (UniProt P50579) | inactive: -0.019 |
| MBNL1 (UniProt C9JP00) | inactive: 0.039 |
| MED13 (UniProt Q9UHV7) | inactive: 0.022 |
| MED26 (UniProt O95402) | inactive: -0.082 |
| MED1 (UniProt Q15648) | inactive: -0.046 |
| MED17 (UniProt Q9NVC6) | inactive: -0.055 |
| MED30 (UniProt Q96HR3) | inactive: 0.055 |
| MFSD1 isoform 6 (UniProt Q9H3U5) | inactive: 0.03 |

compound: C1CCN(C1)C(=O)NC2=CC=CC(=C2)NC3=NC=C(C(=N3)NCCC4=CN=CN4)Br; assay: as above
Summary of the method: as §1

| Target | log2 fold change |
| --- | --- |
| METTL16 (UniProt Q86W50) | inactive: 0.019 |
| MEX3D isoform 3 (UniProt Q86XN8) | inactive: 0.146 |
| MED4 (UniProt Q9NPJ6) | inactive: 0.042 |
| MEF2C isoform 5 (UniProt Q06413) | inactive: 0.126 |
| MED22 isoform 2 (UniProt Q15528) | inactive: -0.037 |
| MFSD10 (UniProt Q14728) | inactive: -0.138 |
| MDH1 isoform 3 (UniProt P40925) | inactive: 0.003 |
| MCM4 (UniProt P33991) | inactive: -0.017 |
| METTL2A (UniProt Q96IZ6) | inactive: 0.002 |
| MED8 isoform 2 (UniProt Q96G25) | inactive: 0.014 |
| MCFD2 (UniProt Q8NI22) | inactive: 0.002 |
| MESD (UniProt Q14696) | inactive: -0.005 |
| METTL7A (UniProt Q9H8H3) | active: 0.385 |
| MED20 (UniProt Q9H944) | inactive: -0.08 |
| MEF2D (UniProt Q14814) | inactive: -0.014 |
| MCU (UniProt Q8NE86) | inactive: 0.055 |
| MAZ isoform 2 (UniProt P56270) | inactive: 0.003 |
| MBOAT2 (UniProt Q6ZWT7) | inactive: -0.148 |
| MDN1 (UniProt Q9NU22) | inactive: -0.018 |

| Target | log2 fold change |
| --- | --- |
| MFN2 (UniProt O95140) | inactive: -0.004 |
| MED14 (UniProt O60244) | inactive: -0.014 |
| MFGE8 (UniProt Q08431) | inactive: 0.001 |
| ME1 (UniProt P48163) | inactive: 0.078 |
| MFN1 (UniProt Q8IWA4) | inactive: 0.024 |
| METAP1 (UniProt P53582) | inactive: -0.01 |
| MED13L (UniProt Q71F56) | inactive: 0.024 |
| MCM5 (UniProt P33992) | inactive: -0.015 |
| MED15 (UniProt Q96RN5) | inactive: 0.017 |
| MED7 (UniProt O43513) | inactive: 0.145 |
| MED12 isoform 2 (UniProt Q93074) | inactive: -0.013 |
| METAP2 (UniProt P50579) | inactive: -0.062 |
| MBNL1 (UniProt C9JP00) | inactive: 0.047 |
| MED13 (UniProt Q9UHV7) | inactive: 0.053 |
| MED26 (UniProt O95402) | inactive: 0.082 |
| MED1 (UniProt Q15648) | inactive: -0.004 |
| MED17 (UniProt Q9NVC6) | inactive: -0.007 |
| MED30 (UniProt Q96HR3) | inactive: -0.025 |
| MFSD1 isoform 6 (UniProt Q9H3U5) | inactive: 0.029 |
